According to article PMC7596997:
Numbering of substitutions follows the chain as printed. No constants are given. Whether binding was seen depends on the method and setting. In cells and extracts the contact can be indirect. Some results given as binding are weak or reduced against the parent protein; the word gives no strength. Tags and fused reporters may be left off the sequences shown. Each block holds one substance with its values, some of them ahead of it.

Amino acid sequences for entries named in this document (tags omitted). A change or cut given only in a name is not applied to a line headed by its entry.
UniProt P02723: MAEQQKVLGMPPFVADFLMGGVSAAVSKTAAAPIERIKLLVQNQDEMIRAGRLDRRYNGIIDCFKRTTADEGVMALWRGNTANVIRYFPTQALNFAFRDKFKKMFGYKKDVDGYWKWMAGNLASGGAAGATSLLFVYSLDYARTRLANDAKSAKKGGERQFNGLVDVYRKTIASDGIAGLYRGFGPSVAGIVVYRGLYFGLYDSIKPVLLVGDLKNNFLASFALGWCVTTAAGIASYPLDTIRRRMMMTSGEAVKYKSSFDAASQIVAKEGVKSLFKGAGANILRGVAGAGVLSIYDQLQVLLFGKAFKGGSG

What was measured:
Experiment in all cases: pull-down; purified His-Tom70cd (50 pmol per 100 μl) pre-bound to Ni-NTA beads, incubated 40 min at 30 °C with typically 7% (v/v) reticulocyte lysate containing the [35S]-labelled protein; 10 mM MOPS/KOH, 20 mM imidazole, 150 mM KCl, 1% BSA, pH 7.2; eluted with 1 M imidazole, SDS-PAGE, phosphorimager; in some samples the bead-bound Tom70cd was pretreated with NEM and washed before the lysate was added; only the target purified
[1] = biological target: T1, cytosolic domain of yeast Tom70 (His-Tom70_(38–617)) (yeast (Saccharomyces cerevisiae)) (UniProt P07213)
T1 sequence: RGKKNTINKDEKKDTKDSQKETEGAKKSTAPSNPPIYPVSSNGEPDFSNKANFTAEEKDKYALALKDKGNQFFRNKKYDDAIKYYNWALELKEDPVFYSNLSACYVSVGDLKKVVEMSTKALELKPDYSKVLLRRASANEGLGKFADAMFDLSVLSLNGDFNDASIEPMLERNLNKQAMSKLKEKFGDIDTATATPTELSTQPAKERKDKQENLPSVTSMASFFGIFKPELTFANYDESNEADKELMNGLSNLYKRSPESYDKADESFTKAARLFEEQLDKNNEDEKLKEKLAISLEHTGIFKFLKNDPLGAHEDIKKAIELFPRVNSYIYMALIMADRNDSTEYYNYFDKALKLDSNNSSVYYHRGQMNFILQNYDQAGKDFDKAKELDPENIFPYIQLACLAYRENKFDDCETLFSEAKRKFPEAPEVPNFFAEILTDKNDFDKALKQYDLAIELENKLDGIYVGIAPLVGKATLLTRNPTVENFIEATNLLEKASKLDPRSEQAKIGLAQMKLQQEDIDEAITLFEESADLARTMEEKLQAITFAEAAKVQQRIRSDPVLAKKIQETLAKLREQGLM

[2] = biological target: T2, Tom70cd C439A (yeast (Saccharomyces cerevisiae)) (UniProt P07213)
T2 sequence: T1 sequence with C402A

[3] = biological target: T3, Tom70cd C141A pretreated with NEM (yeast (Saccharomyces cerevisiae)) (UniProt P07213)
T3 sequence (chain, treated with 2 mM N-ethylmaleimide): T1 sequence with C104A

[4] = biological target: T4, Tom70cd C450A pretreated with NEM (yeast (Saccharomyces cerevisiae)) (UniProt P07213)
T4 sequence (chain, treated with 2 mM N-ethylmaleimide): T1 sequence with C413A

[5] = biological target: T5, Tom70cd C141A (yeast (Saccharomyces cerevisiae)) (UniProt P07213)
T5 sequence: T1 sequence with C104A

[6] = biological target: T6, Tom70_(ΔGlu) (E473Q/E542Q/E577Q), cytosolic domain (yeast (Saccharomyces cerevisiae)) (UniProt P07213)
T6 sequence: T1 sequence with E436Q, E505Q, E540Q

[7] = biological target: T7, Tom70cd C450A (yeast (Saccharomyces cerevisiae)) (UniProt P07213)
T7 sequence: T1 sequence with C413A

[8] = biological target: T8, Tom70cd C439A pretreated with NEM (yeast (Saccharomyces cerevisiae)) (UniProt P07213)
T8 sequence (chain, treated with 2 mM N-ethylmaleimide): T1 sequence with C402A

Substance: AAC module I fused to DHFR (from UniProt P02723 10-100) (domain or fragment)
binding [1]: binds

Substance: AAC module II fused to DHFR (from UniProt P02723 117-206) (domain or fragment)
binding [1]: binds

Substance: AAC module III fused to DHFR (from UniProt P02723 216-305) (domain or fragment)
binding [1]: binds

Substance: ML3-DHFR (matrix loop of AAC module III, residues 238–277, fused to DHFR) (from UniProt P02723 238-277) (domain or fragment)
binding [1]: no binding (tested: < 1%)

Continued, values first:

binding [2]: binds
binding [3]: binds
binding [4]: binds
binding [5]: binds
binding [6]: binds
binding [7]: binds
binding [8]: binds
Substance: ADP/ATP carrier (AAC) of Neurospora crassa, wild type (from UniProt P02723 1-313)

binding [1]: binds
Substance: ML3-TMD6-DHFR (C-terminal part of AAC module III including the matrix loop and helix 6, residues 238–313, fused to DHFR) (from UniProt P02723 238-313) (domain or fragment)

binding [1]: binds
Substance: TMD6-DHFR (AAC helix 6, residues 277–313, fused to DHFR) (from UniProt P02723 277-313) (domain or fragment)
